The nature of the assay: qHTS Assay for Lipid Storage Modulators in Drosophila S3 Cells.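 On cell number change: cells counted by Cell Tracker Red CMTPX staining in the red channel.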 Conditions: BODIPY lipid droplet fluorescence, 18-24 h; for cell number change: measured here: cell count max response, cells fed with added oleic acid. In short, it runs like this:
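Drosophila S3 cells got compounds at several concentrations plus oleic acid (400 uM solution). Laser-scanning cytometry with 488 nm excitation read lipid droplets at 500-530 nm and cells at 575-640 nm. Percent activity was relative to 20 uM Triacsin C.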

Where [1] appears, read: measured here: cell number channel AC50, cells fed with added oleic acid.
Where [2] appears, read: measured here: lipid fluorescence (Fed channel) AC50, cells fed with added oleic acid.

The list shows a part of the results. These are further read-outs of the screen, such as a control signal, another cell line or another target. No call is given for them. Compounds called inactive in the main read-out are mostly missing here. Potencies come from curve fits of mixed quality, noted in brackets.

Regarding `CCOC(=O)c1cnc2c(-c3ccccc3)cnn2c1C`, the cell number change stood at 163%. On the same count and under the same terms, the figure for `Cc1cccc(NC(=O)c2cc(S(=O)(=O)N3CCc4ccccc43)cn2C)c1` is 0.865%. For `COc1cccc(OCc2cc(C(=O)NCc3ccc4c(c3)OCO4)no2)c1`, the cell number change worked out at 38%. Moreover, under setting [1], the AC50 was 11.6 µM [rising, partial curve]. Also, under setting [2], the AC50 was 6.51 µM [rising, partial curve]. As for `O=C1CCCC(O)=C1C=NCc1ccccc1`, the AC50 under setting [1] is 1.16 µM [falling, partial curve]. With `Cc1ccc(NC(=O)c2sc(N)nc2C)cc1`, the cell number change was -8.33%. Besides, under setting [1], the AC50 was 0.82 µM [falling, full curve, poor fit]. Turning to `COc1ccc(C2CC(c3ccccc3)=NN2S(=O)(=O)c2ccccc2)c(OC)c1` (centres undefined), the cell number change was 138%. In addition, under setting [1], the AC50 was 13 µM [rising, partial curve]. The AC50 under setting [2] was 0.259 µM [rising, full curve].

On to `Cc1ccc(Cn2cc(C(=O)c3ccc(F)cc3)c(=O)c3cc4c(cc32)OCCO4)cc1`, for which the AC50 under setting [2] was 3.66 µM [rising, full curve].

As for `O=C(Cc1ncc(C(F)(F)F)cc1Cl)N1CCN(c2cccc(Cl)c2)CC1`, the cell number change turned out to be 72.5%. Besides, under setting [1], the AC50 is 18.4 µM [rising, single point]. For the compound `CC/C(=N\NC(=O)CNC(=O)/C=C/c1ccco1)c1ccccc1`, the cell number change is -32.4%. Further, the AC50 under setting [1] is 0.184 µM [falling, full curve, poor fit]. As to `COC(=O)c1ccccc1NS(=O)(=O)c1ccc2c3c(cccc13)C(=O)N2`, the cell number change was -55.6%. The AC50 under setting [1] is 0.461 µM [falling, full curve]. For the same compound, the AC50 under setting [2] was 0.58 µM [falling, single point]. Consider `O=C(Nc1nc(-c2ccccc2)cs1)c1cccc([N+](=O)[O-])c1`, for which the cell number change is -13.5%. Besides, under setting [2], the AC50 was 23.1 µM [falling, single point]. As to `CCCn1c(SCc2nc3ccccc3s2)n[nH]c1=O`, the cell number change is 34.9%. Further, under setting [1], the AC50 was 6.51 µM [rising, single point]. For the compound `CSc1ccc(CN2CCN(S(=O)(=O)Cc3ccccc3)CC2)cc1`, the cell number change is 22.7%. With `COC(=O)c1ccc(C(=O)OC)c(NC(=O)Nc2ccc3c(c2)OCO3)c1`, the cell number change was determined as 2.34%. Also, the AC50 under setting [2] is 18.4 µM [rising, partial curve]. In the case of `COc1cc2nc(-c3ccccc3)nc(N3CCCC3)c2cc1OC`, the cell number change was determined as 45%. Moreover, under setting [1], the AC50 is 7.31 µM [rising, partial curve, poor fit]. Further, the AC50 under setting [2] is 0.13 µM [falling, full curve, poor fit].

Turning to `O=C(CSCC(=O)Nc1ccc2ccccc2c1)NCc1ccccc1`, the cell number change was -8.83%. Besides, under setting [2], the AC50 is 4.11 µM [falling, full curve]. As for `Nc1ccc(N2CCOCC2)c(S(=O)(=O)Nc2cc(Cl)ccc2Cl)c1`, the cell number change worked out at 28.2%. The AC50 under setting [1] is 0.0058 µM [rising, full curve, poor fit]. Further, the AC50 under setting [2] was 0.00461 µM [rising, full curve, poor fit]. As to `CCC(C(=O)Nc1cc(C)on1)c1ccccc1` (centres undefined), the AC50 under setting [1] is 4.61 µM [rising, single point]. With `N#Cc1ccccc1NC(=O)c1ccc2c(Cl)c3c(nc2c1)CCCC3`, the cell number change is -16.6%. Under setting [2], the AC50 was 25.9 µM [falling, partial curve, poor fit]. As to `Cc1cc(=O)oc2cc(OCC(=O)NC3CCCC3)ccc12`, the cell number change came out at 9.59%. Further, under setting [2], the AC50 is 0.58 µM [rising, single point]. As for `C=CCSc1nnc(-c2c[nH]c3ccccc23)n1CC`, the cell number change came to 18.6%. In addition, under setting [1], the AC50 was 0.0058 µM [rising, full curve, poor fit]. Also, under setting [2], the AC50 is 25.9 µM [rising, single point]. Consider `Cc1nn(-c2ccc(Cl)cc2)c(=O)c2ccccc12`, for which the cell number change amounted to 26.5%. For the same compound, the AC50 under setting [2] is 29.1 µM [rising, single point]. Regarding `O=C(COc1ncnc2cc(Cl)ccc12)c1ccc2c(c1)OCCO2`, the cell number change stood at 5.42%. Further, the AC50 under setting [2] is 0.146 µM [falling, partial curve, poor fit].

Regarding `O=C(CC1C(=O)NCCN1Cc1ccccc1C(F)(F)F)NC1CCCCC1` (centres undefined), the cell number change stood at 20.5%.

Take `CCS(=O)(=O)Nc1c(C(=O)OC)[nH]c2ccccc12`: the cell number change was 2.44%. Turning to `C=CCN1C(=O)CSC1=Nc1ccc(C(=O)O)cc1`, the cell number change amounted to 3.34%. Further, the AC50 under setting [2] is 7.31 µM [falling, single point]. Regarding `COc1cc2c(cc1OC)C(COc1ccc(F)cc1)N(C(=O)c1ccco1)CC2` (centres undefined), the cell number change was -68.3%. The AC50 under setting [1] was 29.1 µM [falling, single point]. For the same compound, the AC50 under setting [2] was 29.1 µM [falling, single point]. As to `CSc1ccccc1NC(=O)COC(=O)Cn1cc(C(F)(F)F)ccc1=O`, the cell number change is -33.6%. Under setting [1], the AC50 is 29.1 µM [falling, single point]. Under setting [2], the AC50 is 14.6 µM [falling, single point]. Regarding `O=C(O)/C=C/C(=O)NNC(=O)c1cc(-c2ccccc2)n[nH]1`, the cell number change came out at 74.6%. In addition, the AC50 under setting [1] is 18.4 µM [rising, single point]. As to `Cc1ccc(NC(=O)CN(C)Cc2c(O)ccc3ccccc23)cc1`, the concentration at half-maximal activity (AC50) under setting [1] is 0.00651 µM [rising, full curve, poor fit]. Take `O=C(CSc1nnc(-c2ccccc2)n1-c1ccccc1)c1cccs1`: the cell number change was -25.4%. The AC50 under setting [2] is 0.0206 µM [falling, full curve, poor fit]. With `CCOC(=O)c1sc2nc(C)nc(NCCc3ccc(S(N)(=O)=O)cc3)c2c1C`, the cell number change was -5.83%. In addition, under setting [2], the AC50 was 0.651 µM [rising, single point].

Consider `Cc1csc(C2=C(O)CN(c3ccc4c(c3)OCCOCCOCCOCCO4)C2=N)n1`, for which the cell number change is -16.1%.

Turning to `CCN(CC)S(=O)(=O)c1ccc(NN=C2CCN(C)CC2)c([N+](=O)[O-])c1`, the AC50 under setting [2] was 2.91 µM [falling, partial curve, poor fit].

Take `O=C1C(c2cc(=O)c3ccccc3[nH]2)=C(O)c2ccccc21`: the cell number change was -33.5%. In addition, the half-maximal activity concentration (AC50) under setting [1] is 25.9 µM [falling, single point]. Also, the AC50 under setting [2] is 5.17 µM [rising, single point].

As for `O=C1NC(=Nc2ccc3ccccc3c2)S/C1=C/c1ccco1`, the cell number change was -12.4%. For `C=CCn1c(-c2csc3c2CCC(C)C3)n[nH]c1=S` (centres undefined), the AC50 under setting [2] was 6.51 µM [rising, single point]. For the compound `O=C(NCC(c1cccnc1)N1CCN(c2ccccc2F)CC1)c1ccccc1` (centres undefined), the AC50 is 1.46 µM [rising, partial curve] under setting [1] and 1.84 µM [rising, partial curve] under setting [2]. As to `NC(=O)CSc1nnc(COc2ccccc2)n1Cc1ccco1`, the cell number change amounted to 99.7%. Further, the AC50 under setting [1] is 25.9 µM [rising, partial curve]. Further, the AC50 under setting [2] was 0.731 µM [rising, single point].

Turning to `CCN1C(=O)/C(=C2/C=CC=CN2C)OC1=S`, the cell number change stood at 5.09%. As to `O=C(CC1C(=O)NCCN1C(=S)Nc1ccccc1)Nc1ccc2c(c1)OCCO2` (centres undefined), the cell number change was found to be 16.5%. Also, the AC50 under setting [2] is 18.4 µM [rising, single point]. Regarding `O=C(Cn1nnc2c(cnn2-c2ccc(F)cc2)c1=O)Nc1ccccc1C(F)(F)F`, the cell number change is -16.6%. In addition, under setting [2], the AC50 is 4.11 µM [falling, full curve, poor fit]. Regarding `CN(C)S(=O)(=O)n1cc(/C=C(\NC(=O)c2ccccc2Cl)C(=O)NCCCn2ccnc2)c2ccccc21`, under setting [2], the AC50 is 6.51 µM [rising, single point]. As to `Cc1ccc(N(C(=O)c2csnn2)C(C(=O)NC2CCCCC2)c2ccccn2)c(C)c1` (centres undefined), the cell number change is 25.4%. On to `CC(=O)c1cccc(CN2CCCC(N3CCN(c4ccccc4F)CC3)C2)c1` (centres undefined), for which the cell number change is -6.74%. Moreover, the AC50 under setting [2] was 0.206 µM [rising, full curve, poor fit].

Take `CCc1ccc(C2c3[nH]c4ccccc4c3CCN2C(=O)CN2CCN(CC)CC2)cc1` (centres undefined): the cell number change is -0.848%. Under setting [2], the AC50 was 0.116 µM [falling, full curve, poor fit]. `CN1CCc2c(sc3nc(SCC(=O)N4CCOCC4)n(-c4ccc(Cl)cc4)c(=O)c23)C1`: the cell number change came out at 9.55%. Moreover, the AC50 under setting [2] was 0.00517 µM [falling, full curve, poor fit]. Take `Cc1c(NC(=O)C2(C)CCCCC2)c(=O)n(-c2ccccc2)n1C`: the cell number change was 6.5%. In the case of `CCOC(=O)Cc1csc(NC(=O)c2cc3c(s2)CCCC3)n1`, the AC50 reads like this: under setting [1], 0.731 µM [falling, full curve, poor fit]; under setting [2], 6.51 µM [falling, single point]. As for `COc1cccc(NC(=O)CCC2CCN(C(=O)c3c(C)noc3C)CC2)c1`, the cell number change is -3.58%. As to `Cc1ccc(S(=O)(=O)N(C)CC(=O)N2CCC(C(N)=O)CC2)cc1`, the cell number change was 26.6%. Turning to `COC(=O)c1ccccc1NC(=O)c1cc2ncc(Br)cn2n1`, the cell number change worked out at 7%. For the same compound, the AC50 under setting [2] was 0.82 µM [rising, partial curve]. As to `COC(=O)CNc1cccc(C(F)(F)F)c1`, the cell number change is 20.7%. With `CCOC(=O)CN=C(NS(=O)(=O)c1ccc(Cl)cc1)c1ccccc1`, the cell number change is -7.98%. In addition, under setting [2], the concentration at half-maximal activity (AC50) is 11.6 µM [falling, partial curve]. In the case of `Cc1onc(-c2c(F)cccc2Cl)c1C(=O)NC(=S)NC1CCSC1=O` (centres undefined), the cell number change is -51.8%. For the same compound, under setting [1], the AC50 was 32.6 µM [falling, single point]. Also, under setting [2], the AC50 is 29.1 µM [falling, single point].

With `Cn1c(=O)c2c(nc(N3CCN(c4ccccc4)CC3)n2CCCc2ccccc2)n(C)c1=O`, under setting [2], the AC50 was 0.58 µM [rising, partial curve, poor fit]. With `COc1cccc(/C=N/NC(=O)c2cnccn2)c1OC`, the cell number change was -3.79%. Further, under setting [2], the AC50 is 0.291 µM [rising, partial curve, poor fit]. Turning to `Cn1ncc2c(=O)n(CC(=O)NC34CC5CC(CC(C5)C3)C4)cnc21`, the cell number change is -69.2%. The AC50 under setting [1] was 8.2 µM [falling, partial curve]. The AC50 under setting [2] is 14.6 µM [falling, partial curve]. Consider `CC(=O)c1c(N2CCCC2)nc(=S)n(-c2ccccc2)c1C`, for which the cell number change was -64.8%. Moreover, the concentration at half-maximal activity (AC50) under setting [1] is 23.1 µM [falling, single point]. As for `CCCN1C(=O)N(C)C(N(O)C(=O)NC)C1(C)C` (centres undefined), the cell number change is 18.8%. In addition, the AC50 under setting [2] was 0.259 µM [rising, full curve, poor fit]. As to `O=C(CCc1nc2ccccc2n1-c1ccccc1)NCCO`, the cell number change came out at 33.3%. The AC50 under setting [1] is 29.1 µM [rising, single point]. Besides, under setting [2], the AC50 was 3.26 µM [falling, single point].
